In all, about 140,000 compounds went through this assay and about 4,300 (3.1%) were called active. The shares of active, inactive and inconclusive entries below differ from those in the screen.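 The calls were made as follows: active = readout at or below -70, meaning at least 70% loss of cells showing the perinucleolar compartment, a nuclear body marking cancer cells; inconclusive = readout between -30 and a set limit; inactive = the rest.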
Experiment: High Content Assay for Compounds that inhibit the Assembly of the Perinucleolar Compartment;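 also: plate controls were DMSO wells for no effect and camptothecin positive control wells for full effect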
Conditions: PC3M PTB-GFP, PNC prevalence imaging, 16 h; at 10 µM; stronger effect = lower value
How it was run: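 Compounds are pinned in duplicate onto adhered PC3M cells stably expressing GFP-tagged PTB and incubated 16 h at 37 C. Cells are then fixed, nuclei stained with Hoechst, and PNC-positive cells counted.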

Structure (SMILES) | activity change (PNC), negative = inhibition
CC(C)(C)C1CCc2c(sc(NC(=O)C3CCCO3)c2C(N)=O)C1 (stereo not drawn) | inconclusive: -33.5%
COc1ccc(-c2c(C(C)=O)c(C)nc3sc4c(=O)[nH]nnc4c23)cc1 | inactive: 26.5%
CCC1CCCCN1CCCn1c(=S)[nH]c2ccccc2c1=O (stereo not drawn) | inconclusive: -32.7%
Cc1cccc(N(C)S(=O)(=O)c2ccc3c(c2)CCC(=O)N3)c1 | inconclusive: -44%
CC(NC(=O)C1CCC1)c1ccccc1 (stereo not drawn) | inconclusive: -60.2%
CC1Cc2ccccc2N1C(=O)c1cccnc1 (stereo not drawn) | inconclusive: -57.4%
CC[N+](CC)(CCO)CCCN1C(=O)C2CC=C(Cl)CC2C1=O (stereo not drawn) | active: -80.9%
CCCCCNC(=O)CCCCn1c(=O)[nH]c2cc(OCC)c(OCC)cc2c1=O | inconclusive: -53.1%
Cc1nc2sccn2c(=O)c1CCN1CCC(=C(c2ccc(F)cc2)c2ccc(F)cc2)CC1 | active: -115%
CC1CCCCN1S(=O)(=O)c1ccc(C(=O)Nc2ccccc2-c2nc3ccccc3[nH]2)cc1 (stereo not drawn) | inconclusive: -35.1%
Cc1occc1C(=O)Nc1ccc2c(c1)CCC2 | inconclusive: -58.6%
COc1ccc(Cl)cc1NC(=O)COc1cccc(-n2cnnn2)c1 | inconclusive: -53.6%
COc1ccc(CC(=O)NC2CCN(Cc3nnnn3C(C)(C)C)CC2)cc1OC | inconclusive: -35.4%
Cc1cccc(NC(=O)Cn2c(=O)n(CCC(=O)NC3CCCC3)c(=O)c3ccccc32)c1 | inactive: -2.1%
O=C(Nc1ccccc1N1CCN(C(=O)c2ccc(Cl)cc2)CC1)c1ccc2c(c1)OCO2 | active: -102%
CC1/C(=N/O)CC(c2ccco2)NC1c1ccco1 (stereo not drawn) | inactive: 51.6%
COc1ccc(NCc2nc3ccccc3n2CCOc2ccccc2)cc1 | inconclusive: -60.1%
CCn1cc(Br)c(C(=O)NC(C)c2ccccc2)n1 (stereo not drawn) | inconclusive: -31%
Cc1cccc(N(C(=O)Cn2nnc3ccccc32)C(C(=O)NC(C)(C)C)c2ccsc2)c1C (stereo not drawn) | inconclusive: -72.2%
O=[N+]([O-])c1ccc(N2CCN(S(=O)(=O)c3ccccc3)CC2)cc1NCC1CCCO1 (stereo not drawn) | inconclusive: -48.5%
COc1cc2nc(SCc3c(C)noc3C)n(CCC3=CCCCC3)c(=O)c2cc1OC | inconclusive: -31%
O=C(NCc1ccco1)C1CCCN(S(=O)(=O)c2cccc3nonc23)C1 (stereo not drawn) | inconclusive: -50.4%

Ordered by count of non-hydrogen atoms (largest number first): part of the list above
Structure (SMILES) | activity change (PNC), negative = inhibition
Cc1cccc(NC(=O)Cn2c(=O)n(CCC(=O)NC3CCCC3)c(=O)c3ccccc32)c1 | inactive: -2.1%
CC(C)(C)C1CCc2c(sc(NC(=O)C3CCCO3)c2C(N)=O)C1 (stereo not drawn) | inconclusive: -33.5%
CCn1cc(Br)c(C(=O)NC(C)c2ccccc2)n1 (stereo not drawn) | inconclusive: -31%

Following part:

Structure (SMILES) | activity change (PNC), negative = inhibition
CCCCc1ccc(NC(=O)CC(C)=O)cc1 | active: -127%
O=C(Nc1cccc(C(F)(F)F)c1)C1(c2ccccc2)CC1 | inconclusive: -36.8%
Cc1ccc(O)c(N=CC2=C(O)c3ccccc3C2=O)c1 | inconclusive: -43.4%
Cn1c2c(c(=O)n(C)c1=O)C(C(F)(F)F)(C(F)(F)F)N=C(C1CCCCC1)N2 | active: -92.9%
O=S(=O)(c1ccc2c(c1)OCCO2)N1CCC(n2nnc3cc(C(F)(F)F)ccc32)CC1 | inactive: -3.77%
Cc1ccccc1C(=O)NC(=S)NCC1CCCO1 (stereo not drawn) | active: -105%
COc1ccc2[nH]c(=O)c(CN(CCO)C(=O)NCc3ccccc3)cc2c1 | inconclusive: -50.1%
CC1CCc2c(sc3nn[nH]c(=O)c23)C1 (stereo not drawn) | inconclusive: -38.9%
Cn1c(=O)c2ncn(CC(=O)NCCC3=CCCCC3)c2n(C)c1=O | active: -100%
COc1ccc(CN(Cc2ccccn2)C(=O)CN2C(=O)C(C)Oc3ccccc32)cc1 (stereo not drawn) | inconclusive: -36.7%
CS(=O)(=O)N1CCN(c2ccc(NC(=O)C(c3ccccc3)c3ccccc3)cc2)CC1 | inconclusive: -41.2%
c1coc(CNc2nc3nonc3nc2NCc2ccco2)c1 | inactive: 2.67%
Cc1ccc(C)n1-c1cccc(NC(=O)c2ccccc2)c1 | inactive: 28%
COc1ccc(C(C(=O)OCCN(C)C)c2ccccc2)cc1 (stereo not drawn) | inactive: -15.2%
CCN(CC)C(=O)C(=O)c1cccn1-c1cccc(-n2cccc2C(=O)C(=O)N(CC)CC)c1C#N | inactive: 44.2%
Cc1ccc(-n2nnnc2-c2nc3ccccc3s2)cc1 | active: -134%
O=C(O)c1ccc(N2CCCC2=O)cc1 | inconclusive: -48.9%
O=C(CSc1nnc(-c2ccccc2)o1)NC1CCS(=O)(=O)C1 (stereo not drawn) | inconclusive: -38.6%
CCOC(=O)N1CCN(C(=O)CSCc2ccccc2C)CC1 | inactive: -6.59%
CCc1nnc(NC(=O)CCC(=O)Nc2ccccc2)s1 | inconclusive: -43.7%
Cc1cc(N2CCN(S(=O)(=O)c3ccccc3)CC2)c2ccccc2n1 | inconclusive: -59.7%
COC(=O)c1sc(NC(C)=O)c(C(=O)OC)c1C | inconclusive: -38.8%

An excerpt of these results, tab-delimited.
Structure (SMILES)	activity change (PNC), negative = inhibition
O=S(=O)(c1ccc2c(c1)OCCO2)N1CCC(n2nnc3cc(C(F)(F)F)ccc32)CC1	inactive: -3.77%
Cc1ccccc1C(=O)NC(=S)NCC1CCCO1 (stereo not drawn)	active: -105%

(list continues)

Structure (SMILES) | activity change (PNC), negative = inhibition
COc1cc(OC)cc(-c2cc3nc(C4CCN(C(=O)OC(C)(C)C)CC4)cc(=O)n3[nH]2)c1 | inconclusive: -53%
Cc1ccc(-c2nc3ccccc3n3nnnc23)cc1 | inconclusive: -63.5%
O=C(COC(=O)CNC(=O)c1ccc(Cl)cc1)Nc1ccc(Cl)cc1C(F)(F)F | inactive: -10.4%
COc1ccc(Cn2c(-c3ccc(C)cc3)c[n+]3ccccc23)cc1 | inactive: -22.3%
O=C(CN1CCC(O)(c2ccc3c(c2)OCO3)CC1)N1CCOCC1 | inactive: -18.7%
CCOP(=O)(OCC)C(NC(=O)Nc1ccc(Cl)cc1)C(=O)N(CC)CC (stereo not drawn) | inconclusive: -57.7%
CN(C)c1ccc(C(C(=O)NC(C)(C)C)N(C(=O)c2csnn2)C2CC2)cc1 (stereo not drawn) | active: -95.8%
CCOC(=O)C(C)(C)N(Cc1cccc(C)c1)S(=O)(=O)c1cccc([N+](=O)[O-])c1 | inactive: 33.5%
O=C(Nc1ccc(NC(=O)C2CC2)nc1)c1ccccn1 | inconclusive: -36.4%
CN(Cc1ccccc1)C(=O)CNC(=O)Cn1cnc2ccccc2c1=O | inconclusive: -63.9%
Cc1ccnc(NS(=O)(=O)c2ccc(Oc3ccccc3)cc2)c1 | inconclusive: -58.5%
NC(=O)COC(=O)c1ccc2c(c1)S(=O)(=O)N=C1CCCCCN12 | inactive: -1.22%
COc1ccc(CNc2nc3c(c(=O)n(Cc4ccc(F)cc4)c(=O)n3C)n2C)cc1 | inconclusive: -56.4%
CC1(C)CC(=O)C2=C(C1)OC(N)=C(C#N)C2c1ccc(OC(=O)N2CCOCC2)cc1 (stereo not drawn) | inconclusive: -36.8%
CN(C(=O)COC(=O)CNC(=O)C12CC3CC(CC(C3)C1)C2)C1CCS(=O)(=O)C1 (stereo not drawn) | active: -121%
CCOC(=O)c1c(C)nc2c(c1-c1ccc(OC)cc1)C(=O)CC(C)(C)C2 | inconclusive: -47.8%
CCOC(=O)c1[nH]c2ccc(OCC)cc2c1CCCN1C(=O)c2ccccc2C1=O | inactive: -11.3%
O=C1C2C3C=CC(C3)C2C(=O)N1CCN1CCN(S(=O)(=O)c2ccc3ccccc3c2)CC1 (stereo not drawn) | inconclusive: -35.2%
O=C1c2ccccc2C(=O)N1CCc1csc(-c2cccc(Cl)c2)n1 | inconclusive: -40.6%
Cc1ccc(Nc2nnc(SCC(=O)NCCN3C(=O)CSC3=O)s2)cc1C | inconclusive: -56.6%
CN1CCc2c(sc3c2C(=O)NC(c2cccc(OC(=O)c4cccs4)c2)N3)C1 (stereo not drawn) | inconclusive: -73.6%
CCN(CC)c1nc2ccccc2c(N)c1-c1ccccc1 | inactive: -9.03%

Structure (SMILES) | activity change (PNC), negative = inhibition
Cc1ccc(S(=O)(=O)N2CCN(C(=O)CSc3nc4ccccc4c(=O)[nH]3)CC2)cc1 | inconclusive: -67.9%
O=C(CSc1nnnn1C1CCCCC1)NCCc1ccccc1 | inconclusive: -64.8%
CCC(C)NC(=O)CCS(=O)(=O)c1ccc(Br)s1 (stereo not drawn) | inconclusive: -56.2%
CCOc1ccc(N(CC(=O)Nc2cccc(F)c2)S(=O)(=O)c2c(C)noc2C)cc1 | inactive: 29.6%
CC1CCCC(C)N1C(=O)c1cc2ncc(CCCl)cn2n1 (stereo not drawn) | active: -83.9%
CN(c1ccc(Cl)cc1)c1cc(=O)n(C)c2ccccc12 | inconclusive: -70.3%
CC1(C)CC(=O)C=C(Nc2ccc(C(=O)O)cc2)C1 | inconclusive: -48.4%
CC(=O)Nc1ccccc1NC(=O)CC(C)(C)C | inconclusive: -65.5%
Cc1c(C(=O)NC(=S)Nc2ccc(NC(=O)c3cccs3)cc2)oc2ccccc12 | inconclusive: -34.9%
CC1=C(n2nnc3ccccc32)C(c2ccccc2)C(C#N)=C(N)O1 (stereo not drawn) | inconclusive: -55.5%
COc1cc(/C=N/NC(=O)Nc2cccc3nsnc23)cc(OC)c1OC | inconclusive: -51.2%
Cc1cc(C)n(C(=O)CCN2C(=O)c3ccccc3C2=O)n1 | inconclusive: -41.2%
COc1ccc(-c2nnc(SCC(=O)NC(C)c3ccccc3)o2)cc1 (stereo not drawn) | inconclusive: -53.3%
O=C1CCCC/C1=C/Nc1ccc(S(=O)(=O)Nc2ncccn2)cc1 | inconclusive: -43.4%
CCOC(=O)Cc1[nH]nc2c1C(C1C=CCCC1)C(C#N)=C(N)O2 (stereo not drawn) | inconclusive: -33.7%
COc1ccc(N2C(=O)/C(=C/c3cccs3)NC2=S)cc1 | inconclusive: -31.1%
CCCCn1c(SCc2cccnc2)nc2c1c(=O)n(C)c(=O)n2C | inconclusive: -62.7%
Cc1nn(C)c(C)c1S(=O)(=O)N1CCC(C(=O)NC2CCCCC2)CC1 | inconclusive: -68%
Cc1ccc(/C=N/N=C/c2ccc(C)cc2)cc1 | inactive: 18.8%
Cc1cc(NC(=O)CCC(=O)N(c2ccccc2)C(C(=O)NCC2CCCO2)c2cccnc2)no1 (stereo not drawn) | inconclusive: -36.7%
Cn1c(=O)c2c(nc(SCC(=O)Nc3ccccc3)n2C)n(C)c1=O | inactive: 10.4%
c1ccc(NC2=Nc3ccccc3CS2)cc1 | inconclusive: -38.8%

From PubChem BioAssay AID2417 (National Center for Advancing Translational Sciences (NCATS), 2010)
